Drawing on publication PMC4231456, “HIV-1 Tat protein binds to TLR4-MD2 and signals to induce TNF-α and IL-10” (Retrovirology, 2013), this text covers binding for seven molecules.

The target of assay [1] is T1, recombinant human CD14 (human) (UniProt P08571).
T1 sequence: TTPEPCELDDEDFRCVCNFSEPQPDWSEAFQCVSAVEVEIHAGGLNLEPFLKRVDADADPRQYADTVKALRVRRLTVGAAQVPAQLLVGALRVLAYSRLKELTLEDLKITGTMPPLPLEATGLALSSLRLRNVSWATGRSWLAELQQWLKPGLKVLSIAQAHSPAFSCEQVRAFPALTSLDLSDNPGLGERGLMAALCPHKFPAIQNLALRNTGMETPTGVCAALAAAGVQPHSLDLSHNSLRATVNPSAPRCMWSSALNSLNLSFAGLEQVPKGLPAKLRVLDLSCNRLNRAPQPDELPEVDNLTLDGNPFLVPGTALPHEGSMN
As to the kind of experiment: ELISA; solid phase assay: rh TLR4-MD2, MD2 or CD14 coated at 1 μg/ml (24 h, 4°C); GST-Tat 1-101, GST-Tat 1-45, GST-Tat 30-72 or GST (1 μM) incubated 2 h at 37°C; detected with anti-GST or monoclonal anti-Tat; OD 450 nm; both purified.

Assay [2] addresses T2, recombinant human MD2 (human) (UniProt Q9Y6Y9).
T2 sequence: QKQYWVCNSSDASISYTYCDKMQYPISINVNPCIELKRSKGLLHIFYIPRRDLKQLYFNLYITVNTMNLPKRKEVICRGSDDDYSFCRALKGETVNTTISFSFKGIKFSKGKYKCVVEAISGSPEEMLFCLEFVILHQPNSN
The description is as above.

For assay [3], the target named is T2, recombinant human MD2 (human). Briefly: ELISA; competition: GST-Tat 1-101 or GST-Tat 1-45 (0.1 μM) pre-incubated 1 h at 37°C with increasing amounts of soluble rhMD2, rhTLR4-MD2, rhTLR4 or rhCD14, then 2 h on coated rhMD2 (or TLR4-MD2); OD 450 nm; K0.5 taken as an apparent dissociation constant; both purified.
The target in assay [4] is GST-Tat 1-101 (HIV-1 Tat protein) (HIV-1). As to the kind of experiment: pull-down; GST or GST-Tat proteins (1 μM) coupled to glutathione-agarose beads, saturated with BSA, incubated with soluble recombinant human TLR4-MD2, MD2 or CD14 (1 μg); washes with Tris-HCl 20 mM, NaCl 150 mM, NP-40 0.5%; western blot; both purified. (A western blot detects proteins with antibodies after separation by electrophoresis.)

The target of assay [5] is GST-Tat 1-45 (N-terminal domain of HIV-1 Tat) (HIV-1). The assay is described as above.
Assay [6] addresses GST-Tat 1-101 (HIV-1 Tat protein) (HIV-1). Briefly: pull-down; GST or GST-Tat proteins coupled to glutathione-agarose beads incubated with 500 μg of total cellular extract of HEK 293-TLR4-MD2-CD14 cells (HEK 293 as control); western blot with antibodies against CD14, MD2, TLR4; only the target purified.
Assay [7] deals with GST-Tat 1-45 (N-terminal domain of HIV-1 Tat) (HIV-1). Described as above.

Results are given in words; binding and its absence hold for the method and conditions named. For some of these results: Binding calls can cover weak binding; strength is not graded here. For some of these results: Binding seen in cells or lysates may run through a third protein.

As for “GST-Tat 1-45 (N-terminal domain of HIV-1 Tat) (domain or fragment)”, the binding result is reported as “no binding (tested: 1 μM)” in assay [1], “binds” in assay [2] and “binds” in assay [3].

For the molecule GST-Tat 1-101 (HIV-1 Tat protein), the results for the binding entry in assay [1], in assay [2] and in assay [3] were “no binding (tested: 1 μM)”, “binds” and “binds”, respectively.

Turning to “GST-Tat 30-72 (central domain of HIV-1 Tat) (domain or fragment)”, the binding entry in assay [1] and in assay [2] was “no binding (tested: 1 μM)” throughout.

B1: recombinant human CD14 (protein, UniProt P08571 20-345)
chain: TTPEPCELDDEDFRCVCNFSEPQPDWSEAFQCVSAVEVEIHAGGLNLEPFLKRVDADADPRQYADTVKALRVRRLTVGAAQVPAQLLVGALRVLAYSRLKELTLEDLKITGTMPPLPLEATGLALSSLRLRNVSWATGRSWLAELQQWLKPGLKVLSIAQAHSPAFSCEQVRAFPALTSLDLSDNPGLGERGLMAALCPHKFPAIQNLALRNTGMETPTGVCAALAAAGVQPHSLDLSHNSLRATVNPSAPRCMWSSALNSLNLSFAGLEQVPKGLPAKLRVLDLSCNRLNRAPQPDELPEVDNLTLDGNPFLVPGTALPHEGSMN
Consider B1, for which the binding entry in assay [4] and in assay [5] was “no binding (tested: 1 μg/ml)” in each case.

B2: CD14 from HEK293 cells stably transfected with TLR4-CD14-MD2 (protein, UniProt P08571 20-345)
chain: TTPEPCELDDEDFRCVCNFSEPQPDWSEAFQCVSAVEVEIHAGGLNLEPFLKRVDADADPRQYADTVKALRVRRLTVGAAQVPAQLLVGALRVLAYSRLKELTLEDLKITGTMPPLPLEATGLALSSLRLRNVSWATGRSWLAELQQWLKPGLKVLSIAQAHSPAFSCEQVRAFPALTSLDLSDNPGLGERGLMAALCPHKFPAIQNLALRNTGMETPTGVCAALAAAGVQPHSLDLSHNSLRATVNPSAPRCMWSSALNSLNLSFAGLEQVPKGLPAKLRVLDLSCNRLNRAPQPDELPEVDNLTLDGNPFLVPGTALPHEGSMN
Turning to B2, the binding entry in assay [6] and in assay [7] was “no binding (tested: 500 μg of cellular extract)” each time.

B3: MD2 from HEK293 cells stably transfected with TLR4-CD14-MD2 (protein, UniProt Q9Y6Y9 19-160)
chain: QKQYWVCNSSDASISYTYCDKMQYPISINVNPCIELKRSKGLLHIFYIPRRDLKQLYFNLYITVNTMNLPKRKEVICRGSDDDYSFCRALKGETVNTTISFSFKGIKFSKGKYKCVVEAISGSPEEMLFCLEFVILHQPNSN
For B3, the binding result in assay [6] and in assay [7] was “binds” throughout.

B4: recombinant human MD2 (natural protein, UniProt Q9Y6Y9 19-160, looked up)
chain: QKQYWVCNSSDASISYTYCDKMQYPISINVNPCIELKRSKGLLHIFYIPRRDLKQLYFNLYITVNTMNLPKRKEVICRGSDDDYSFCRALKGETVNTTISFSFKGIKFSKGKYKCVVEAISGSPEEMLFCLEFVILHQPNSN
notes: human MD2 (lymphocyte antigen 96), soluble recombinant; No catalogue number printed; also called rhMD2; hMD2; source: bought: R&D Systems
Turning to B4, the binding entry in assay [4] and in assay [5] was “binds” each time.
